The values below come from PMC8522249.

By UniProt entry, the sequences of proteins in these tests, tags left out. Residues count along the entry.
UniProt P05067, residues 672-770: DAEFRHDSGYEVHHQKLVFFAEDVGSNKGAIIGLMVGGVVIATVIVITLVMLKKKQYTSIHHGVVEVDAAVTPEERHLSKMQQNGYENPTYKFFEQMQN
UniProt P60468: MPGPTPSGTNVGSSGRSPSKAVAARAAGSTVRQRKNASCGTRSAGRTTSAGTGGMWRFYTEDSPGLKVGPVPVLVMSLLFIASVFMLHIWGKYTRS

No constants are given. Whether binding was seen depends on the method and setting. Binding seen in cells or lysates may run through a third protein. Some entries that bind do so weakly or less than the wild type.

Assay [1] deals with APP.C99 (amyloid precursor protein C-terminal fragment), full-length species (human) (UniProt P05067). The assay can be described thus: co-IP; IP of APP.C99 from transfected HeLa cells (the methods list 6E10), protein A/G beads; blots for ribosome-associated QC factors.
For assay [2], the target named is Sec61B (ER translocon protein) (human (endogenous in HeLa)) (UniProt P60468). The assay can be described thus: pull-down; ER translocon and associated proteins captured on concanavalin A (ConA) agarose beads from extracts or crude membrane fractions of HeLa cells, untransfected or transfected with APP.C99, 2 h at 4 °C; beads also treated with RNase A (1 µg/ml, 37 °C, 30 min) or EDTA (50 mM, on ice, 30 min).

B1: ZNF598 (protein, UniProt Q86UK7 1-904)
chain: MAAAGGAEGRRAALEAAAAAAPERGGGSCVLCCGDLEATALGRCDHPVCYRCSTKMRVLCEQRYCAVCREELRQVVFGKKLPAFATIPIHQLQHEKKYDIYFADGKVYALYRQLLQHECPRCPELPPFSLFGDLEQHMRRQHELFCCRLCLQHLQIFTYERKWYSRKDLARHRMQGDPDDTSHRGHPLCKFCDERYLDNDELLKHLRRDHYFCHFCDSDGAQDYYSDYAYLREHFREKHFLCEEGRCSTEQFTHAFRTEIDLKAHRTACHSRSRAEARQNRHIDLQFSYAPRHSRRNEGVVGGEDYEEVDRYSRQGRVARAGTRGAQQSRRGSWRYKREEEDREVAAAVRASVAAQQQEEARRSEDQEEGGRPKKEEAAARGPEDPRGPRRSPRTQGEGPGPKETSTNGPVSQEAFSVTGPAAPGCVGVPGALPPPSPKLKDEDFPSLSASTSSSCSTAATPGPVGLALPYAIPARGRSAFQEEDFPALVSSVPKPGTAPTSLVSAWNSSSSSKKVAQPPLSAQATGSGQPTRKAGKGSRGGRKGGPPFTQEEEEDGGPALQELLSTRPTGSVSSTLGLASIQPSKVGKKKKVGSEKPGTTLPQPPPATCPPGALQAPEAPASRAEGPVAVVVNGHTEGPAPARSAPKEPPGLPRPLGSFPCPTPQEDFPALGGPCPPRMPPPPGFSAVVLLKGTPPPPPPGLVPPISKPPPGFSGLLPSPHPACVPSPATTTTTKAPRLLPAPRAYLVPENFRERNLQLIQSIRDFLQSDEARFSEFKSHSGEFRQGLISAAQYYKSCRDLLGENFQKVFNELLVLLPDTAKQQELLSAHTDFCNREKPLSTKSKKNKKSAWQATTQQAGLDCRVCPTCQQVLAHGDASSHQALHAARDDDFPSLQAIARIIT
On to B1, for which the binding entry in assay [1] and in assay [2] was “binds” each time.

B2: ANKZF1 (protein, UniProt Q9H8Y5 1-726)
chain: MSPAPDAAPAPASISLFDLSADAPVFQGLSLVSHAPGEALARAPRTSCSGSGERESPERKLLQGPMDISEKLFCSTCDQTFQNHQEQREHYKLDWHRFNLKQRLKDKPLLSALDFEKQSSTGDLSSISGSEDSDSASEEDLQTLDRERATFEKLSRPPGFYPHRVLFQNAQGQFLYAYRCVLGPHQDPPEEAELLLQNLQSRGPRDCVVLMAAAGHFAGAIFQGREVVTHKTFHRYTVRAKRGTAQGLRDARGGPSHSAGANLRRYNEATLYKDVRDLLAGPSWAKALEEAGTILLRAPRSGRSLFFGGKGAPLQRGDPRLWDIPLATRRPTFQELQRVLHKLTTLHVYEEDPREAVRLHSPQTHWKTVREERKKPTEEEIRKICRDEKEALGQNEESPKQGSGSEGEDGFQVELELVELTVGTLDLCESEVLPKRRRRKRNKKEKSRDQEAGAHRTLLQQTQEEEPSTQSSQAVAAPLGPLLDEAKAPGQPELWNALLAACRAGDVGVLKLQLAPSPADPRVLSLLSAPLGSGGFTLLHAAAAAGRGSVVRLLLEAGADPTVQDSRARPPYTVAADKSTRNEFRRFMEKNPDAYDYNKAQVPGPLTPEMEARQATRKREQKAARRQREEQQQRQQEQEEREREEQRRFAALSDREKRALAAERRLAAQLGAPTSPIPDSAIVNTRRCWSCGASLQGLTPFHYLDFSFCSTRCLQDHRRQAGRPSS
For the molecule B2, the binding result in assay [1] is listed as “no binding”.

B3: NEMF (protein, UniProt O60524 1-1076)
chain: MKSRFSTIDLRAVLAELNASLLGMRVNNVYDVDNKTYLIRLQKPDFKATLLLESGIRIHTTEFEWPKNMMPSSFAMKCRKHLKSRRLVSAKQLGVDRIVDFQFGSDEAAYHLIIELYDRGNIVLTDYEYVILNILRFRTDEADDVKFAVRERYPLDHARAAEPLLTLERLTEIVASAPKGELLKRVLNPLLPYGPALIEHCLLENGFSGNVKVDEKLETKDIEKVLVSLQKAEDYMKTTSNFSGKGYIIQKREIKPSLEADKPVEDILTYEEFHPFLFSQHSQCPYIEFESFDKAVDEFYSKIEGQKIDLKALQQEKQALKKLDNVRKDHENRLEALQQAQEIDKLKGELIEMNLQIVDRAIQVVRSALANQIDWTEIGLIVKEAQAQGDPVASAIKELKLQTNHVTMLLRNPYLLSEEEDDDVDGDVNVEKNETEPPKGKKKKQKNKQLQKPQKNKPLLVDVDLSLSAYANAKKYYDHKRYAAKKTQKTVEAAEKAFKSAEKKTKQTLKEVQTVTSIQKARKVYWFEKFLWFISSENYLIIGGRDQQQNEIIVKRYLTPGDIYVHADLHGATSCVIKNPTGEPIPPRTLTEAGTMALCYSAAWDARVITSAWWVYHHQVSKTAPTGEYLTTGSFMIRGKKNFLPPSYLMMGFSFLFKVDESCVWRHQGERKVRVQDEDMETLASCTSELISEEMEQLDGGDTSSDEDKEEHETPVEVELMTQVDQEDITLQSGRDELNEELIQEESSEDEGEYEEVRKDQDSVGEMKDEGEETLNYPDTTIDLSHLQPQRSIQKLASKEESSNSSDSKSQSRRHLSAKERREMKKKKLPSDSGDLEALEGKDKEKESTVHIETHQNTSKNVAAVQPMKRGQKSKMKKMKEKYKDQDEEDRELIMKLLGSAGSNKEEKGKKGKKGKTKDEPVKKQPQKPRGGQRVSDNIKKETPFLEVITHELQDFAVDDPHDDKEEQDLDQQGNEENLFDSLTGQPHPEDVLLFAIPICAPYTTMTNYKYKVKLTPGVQKKGKAAKTALNSFMHSKEATAREKDLFRSVKDTDLSRNIPGKVKVSAPNLLNVKRK
Take B3: in assay [1], the binding result is “binds weakly”.
